This is an account of results in US20180195054A1 (Stanford University, published 2018).

Results are given in words; binding and its absence hold for the method and conditions named. Some entries that bind do so weakly or less than the wild type. For part of these data: Where a sequence is shown, tags or fusion partners need not be part of it.

The target of assay [1] is T1, mouse CD47 displayed on the surface of yeast (mouse) (UniProt Q61735).
T1 sequence (looked up): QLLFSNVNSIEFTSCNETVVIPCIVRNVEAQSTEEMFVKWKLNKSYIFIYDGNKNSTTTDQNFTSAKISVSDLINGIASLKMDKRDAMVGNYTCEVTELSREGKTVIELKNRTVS
Kind of assay: flow cytometry on yeast displaying mouse CD47. A general note: A flow cytometer gives signals particle by particle.

Assay [2] concerns the target T1, mouse CD47 displayed on the surface of yeast (mouse). Kind of assay: staining of yeast displaying mouse CD47 (FIG. 17C).
The target is the same in assay [3]. The assay is described as follows: flow cytometry on yeast displaying mouse CD47, competition with wild-type mouse SIRPα tetramers.

B1: high-affinity SIRPα variant CV1 monomer (consensus variant 1, d1 domain) (designed binder)
chain: EEELQIIQPDKSVLVAAGETATLRCTITSLFPVGPIQWFRGAGPGRVLIYNQRQGPFPRVTTVSDTTKRNNMDFSIRIGNITPADAGTYYCIKFRKGSPDDVEFKSGAGTELSVRAKPSHHHHHHHH
notes: Nine consensus substitutions grafted onto wild-type SIRPα allele 2
Regarding B1, the binding result in assay [1] and in assay [2] was “binds” throughout.

B2: FD6-hIgG4 (FD6 d1 domain fused to hinge, CH2 and CH3 of human IgG4) (Fc fusion)
chain: EEEVQIIQPDKSVSVAAGESAILHCTITSLFPVGPIQWFRGAGPARVLIYNQRQGPFPRVTTISETTRRENMDFSISISNITPADAGTYYCIKFRKGSPDTEFKSGAGTELSVRAKPSAAAPPCPPCPAPEFLGGPSVFLFPPKPKDTLMISRTPEVTCVVVDVSQEDPEVQFNWYVDGVEVHNAKTKPREEQFNSTYRVVSVLTVLHQDWLNGKEYKCKVSNKGLPSSIEKTISKAKGQPREPQVYTLPPSQEEMTKNQVSLTCLVKGFYPSDIAVEWESNGQPENNYKTTPPVLDSDGSFFLYSRLTVDKSRWQEGNVFSCSVMHEALHNHYTQKSLSLSPGK
notes: also called FD6-hlgG4; FD-hlgG4
On to B2, for which the binding result in assay [3] is “binds”.
